In publication PMC6533717:
Results are given in words; binding and its absence hold for the method and conditions named. In cells and extracts the contact can be indirect. Some entries that bind do so weakly or less than the wild type. Sequences can lack the tags named with a protein.

The chains behind the UniProt entries cited, without tags or fusion partners.
UniProt P20226: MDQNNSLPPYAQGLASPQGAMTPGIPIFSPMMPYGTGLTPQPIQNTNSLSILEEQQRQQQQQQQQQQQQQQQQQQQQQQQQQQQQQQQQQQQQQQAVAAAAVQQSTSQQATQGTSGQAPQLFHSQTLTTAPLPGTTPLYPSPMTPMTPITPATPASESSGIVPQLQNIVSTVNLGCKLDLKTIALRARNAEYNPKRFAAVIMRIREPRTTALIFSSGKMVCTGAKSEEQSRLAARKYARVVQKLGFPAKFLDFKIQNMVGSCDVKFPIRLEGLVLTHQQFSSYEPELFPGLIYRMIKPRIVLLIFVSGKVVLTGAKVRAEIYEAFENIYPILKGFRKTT

T1: FLAG-tagged Brf1 (B-related factor 1) (UniProt Q92994)
T1 sequence: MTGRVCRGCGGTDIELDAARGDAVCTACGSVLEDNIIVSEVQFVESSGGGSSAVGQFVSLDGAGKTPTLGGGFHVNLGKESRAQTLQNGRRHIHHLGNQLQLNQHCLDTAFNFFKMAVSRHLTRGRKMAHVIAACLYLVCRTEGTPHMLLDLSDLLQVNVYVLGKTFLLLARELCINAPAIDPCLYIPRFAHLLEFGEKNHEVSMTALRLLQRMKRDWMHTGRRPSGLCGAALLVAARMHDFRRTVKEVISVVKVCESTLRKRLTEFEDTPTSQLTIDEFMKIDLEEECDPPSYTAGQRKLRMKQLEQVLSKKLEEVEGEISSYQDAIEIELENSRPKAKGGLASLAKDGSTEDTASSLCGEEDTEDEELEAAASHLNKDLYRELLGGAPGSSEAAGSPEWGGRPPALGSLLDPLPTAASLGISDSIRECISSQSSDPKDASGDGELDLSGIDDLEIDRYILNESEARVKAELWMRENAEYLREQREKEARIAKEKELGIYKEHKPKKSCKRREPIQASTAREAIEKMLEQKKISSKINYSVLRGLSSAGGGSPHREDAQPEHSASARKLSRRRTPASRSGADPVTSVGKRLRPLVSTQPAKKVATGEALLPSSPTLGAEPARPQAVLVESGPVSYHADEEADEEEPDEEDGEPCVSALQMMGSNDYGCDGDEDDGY

T2: CFP-tagged Brf1 (UniProt Q92994)
T2 sequence: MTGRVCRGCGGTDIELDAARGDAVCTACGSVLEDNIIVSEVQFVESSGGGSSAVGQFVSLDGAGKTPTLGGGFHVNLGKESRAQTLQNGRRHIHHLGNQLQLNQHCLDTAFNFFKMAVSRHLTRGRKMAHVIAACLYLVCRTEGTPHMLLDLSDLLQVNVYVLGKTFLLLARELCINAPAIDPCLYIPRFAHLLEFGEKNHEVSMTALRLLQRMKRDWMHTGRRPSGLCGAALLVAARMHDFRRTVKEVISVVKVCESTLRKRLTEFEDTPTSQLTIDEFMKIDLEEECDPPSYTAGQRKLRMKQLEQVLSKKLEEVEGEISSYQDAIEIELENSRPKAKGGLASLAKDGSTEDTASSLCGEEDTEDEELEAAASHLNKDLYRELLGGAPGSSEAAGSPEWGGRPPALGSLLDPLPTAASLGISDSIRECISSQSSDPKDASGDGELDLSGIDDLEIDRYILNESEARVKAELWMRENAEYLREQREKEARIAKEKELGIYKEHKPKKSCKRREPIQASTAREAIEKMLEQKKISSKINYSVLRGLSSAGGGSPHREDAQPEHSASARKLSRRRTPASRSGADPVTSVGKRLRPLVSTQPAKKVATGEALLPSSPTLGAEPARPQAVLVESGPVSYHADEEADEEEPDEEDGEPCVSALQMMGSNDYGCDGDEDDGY


How the values were obtained:
[1] = biological target: T1, FLAG-tagged Brf1 (B-related factor 1); experiment: co-IP; RKO cells transfected with plasmids for FLAG- or Myc-tagged proteins, with or without triptolide; lysed in RIPA buffer (20 mM Tris-HCl pH 7.5, 150 mM NaCl, 1 mM EDTA, 1% NP-40); precipitated with FLAG beads at 4 °C overnight, washed 3 times; immunoblot
[2] = biological target: FLAG-tagged TBP (TATA box-binding protein) (UniProt P20226); experiment: as above
[3] = biological target: YFP-tagged TBP (UniProt P20226); experiment: FRET or BRET; RKO cells co-expressing CFP- and YFP-tagged proteins, 24 h after transfection; excitation 458 nm, emission scanned 460-600 nm in a plate reader (VarioskanFlash)
[4] = biological target: T2, CFP-tagged Brf1; experiment: as above

binding [1] | binding [2] | Molecule | also measured
binds |  | TATA box-binding protein (TBP), endogenous (from UniProt P20226 1-339) | 
 | binds | myc-tagged Brf1 (B-related factor 1) (protein, UniProt Q92994 1-677) MTGRVCRGCGGTDIELDAARGDAVCTACGSVLEDNIIVSEVQFVESSGGGSSAVGQFVSLDGAGKTPTLGGGFHVNLGKESRAQTLQNGRRHIHHLGNQLQLNQHCLDTAFNFFKMAVSRHLTRGRKMAHVIAACLYLVCRTEGTPHMLLDLSDLLQVNVYVLGKTFLLLARELCINAPAIDPCLYIPRFAHLLEFGEKNHEVSMTALRLLQRMKRDWMHTGRRPSGLCGAALLVAARMHDFRRTVKEVISVVKVCESTLRKRLTEFEDTPTSQLTIDEFMKIDLEEECDPPSYTAGQRKLRMKQLEQVLSKKLEEVEGEISSYQDAIEIELENSRPKAKGGLASLAKDGSTEDTASSLCGEEDTEDEELEAAASHLNKDLYRELLGGAPGSSEAAGSPEWGGRPPALGSLLDPLPTAASLGISDSIRECISSQSSDPKDASGDGELDLSGIDDLEIDRYILNESEARVKAELWMRENAEYLREQREKEARIAKEKELGIYKEHKPKKSCKRREPIQASTAREAIEKMLEQKKISSKINYSVLRGLSSAGGGSPHREDAQPEHSASARKLSRRRTPASRSGADPVTSVGKRLRPLVSTQPAKKVATGEALLPSSPTLGAEPARPQAVLVESGPVSYHADEEADEEEPDEEDGEPCVSALQMMGSNDYGCDGDEDDGY | 
 |  | CFP-tagged Brf1 (protein, UniProt Q92994 1-677) MTGRVCRGCGGTDIELDAARGDAVCTACGSVLEDNIIVSEVQFVESSGGGSSAVGQFVSLDGAGKTPTLGGGFHVNLGKESRAQTLQNGRRHIHHLGNQLQLNQHCLDTAFNFFKMAVSRHLTRGRKMAHVIAACLYLVCRTEGTPHMLLDLSDLLQVNVYVLGKTFLLLARELCINAPAIDPCLYIPRFAHLLEFGEKNHEVSMTALRLLQRMKRDWMHTGRRPSGLCGAALLVAARMHDFRRTVKEVISVVKVCESTLRKRLTEFEDTPTSQLTIDEFMKIDLEEECDPPSYTAGQRKLRMKQLEQVLSKKLEEVEGEISSYQDAIEIELENSRPKAKGGLASLAKDGSTEDTASSLCGEEDTEDEELEAAASHLNKDLYRELLGGAPGSSEAAGSPEWGGRPPALGSLLDPLPTAASLGISDSIRECISSQSSDPKDASGDGELDLSGIDDLEIDRYILNESEARVKAELWMRENAEYLREQREKEARIAKEKELGIYKEHKPKKSCKRREPIQASTAREAIEKMLEQKKISSKINYSVLRGLSSAGGGSPHREDAQPEHSASARKLSRRRTPASRSGADPVTSVGKRLRPLVSTQPAKKVATGEALLPSSPTLGAEPARPQAVLVESGPVSYHADEEADEEEPDEEDGEPCVSALQMMGSNDYGCDGDEDDGY | binding [3]: binds
binds | binds | POLR3D, one subunit of Pol III (endogenous) (protein, UniProt P05423 1-398) MSEGNAAGEPSTPGGPRPLLTGARGLIGRRPAPPLTPGRLPSIRSRDLTLGGVKKKTFTPNIISRKIKEEPKEEVTVKKEKRERDRDRQREGHGRGRGRPEVIQSHSIFEQGPAEMMKKKGNWDKTVDVSDMGPSHIINIKKEKRETDEETKQILRMLEKDDFLDDPGLRNDTRNMPVQLPLAHSGWLFKEENDEPDVKPWLAGPKEEDMEVDIPAVKVKEEPRDEEEEAKMKAPPKAARKTPGLPKDVSVAELLRELSLTKEEELLFLQLPDTLPGQPPTQDIKPIKTEVQGEDGQVVLIKQEKDREAKLAENACTLADLTEGQVGKLLIRKSGRVQLLLGKVTLDVTMGTACSFLQELVSVGLGDSRTGEMTVLGHVKHKLVCSPDFESLLDHKHR | 
 |  | YFP-tagged POLR3D (protein, UniProt P05423 1-398) MSEGNAAGEPSTPGGPRPLLTGARGLIGRRPAPPLTPGRLPSIRSRDLTLGGVKKKTFTPNIISRKIKEEPKEEVTVKKEKRERDRDRQREGHGRGRGRPEVIQSHSIFEQGPAEMMKKKGNWDKTVDVSDMGPSHIINIKKEKRETDEETKQILRMLEKDDFLDDPGLRNDTRNMPVQLPLAHSGWLFKEENDEPDVKPWLAGPKEEDMEVDIPAVKVKEEPRDEEEEAKMKAPPKAARKTPGLPKDVSVAELLRELSLTKEEELLFLQLPDTLPGQPPTQDIKPIKTEVQGEDGQVVLIKQEKDREAKLAENACTLADLTEGQVGKLLIRKSGRVQLLLGKVTLDVTMGTACSFLQELVSVGLGDSRTGEMTVLGHVKHKLVCSPDFESLLDHKHR | binding [4]: binds
